Results as given in publication PMC6336687.
No constants are given. Whether binding was seen depends on the method and setting. In cells and extracts the contact can be indirect. Some entries that bind do so weakly or less than the wild type. Sequences can lack the tags named with a protein.

Chains of the proteins cited; added tags and fusions are not shown.
UniProt Q15910: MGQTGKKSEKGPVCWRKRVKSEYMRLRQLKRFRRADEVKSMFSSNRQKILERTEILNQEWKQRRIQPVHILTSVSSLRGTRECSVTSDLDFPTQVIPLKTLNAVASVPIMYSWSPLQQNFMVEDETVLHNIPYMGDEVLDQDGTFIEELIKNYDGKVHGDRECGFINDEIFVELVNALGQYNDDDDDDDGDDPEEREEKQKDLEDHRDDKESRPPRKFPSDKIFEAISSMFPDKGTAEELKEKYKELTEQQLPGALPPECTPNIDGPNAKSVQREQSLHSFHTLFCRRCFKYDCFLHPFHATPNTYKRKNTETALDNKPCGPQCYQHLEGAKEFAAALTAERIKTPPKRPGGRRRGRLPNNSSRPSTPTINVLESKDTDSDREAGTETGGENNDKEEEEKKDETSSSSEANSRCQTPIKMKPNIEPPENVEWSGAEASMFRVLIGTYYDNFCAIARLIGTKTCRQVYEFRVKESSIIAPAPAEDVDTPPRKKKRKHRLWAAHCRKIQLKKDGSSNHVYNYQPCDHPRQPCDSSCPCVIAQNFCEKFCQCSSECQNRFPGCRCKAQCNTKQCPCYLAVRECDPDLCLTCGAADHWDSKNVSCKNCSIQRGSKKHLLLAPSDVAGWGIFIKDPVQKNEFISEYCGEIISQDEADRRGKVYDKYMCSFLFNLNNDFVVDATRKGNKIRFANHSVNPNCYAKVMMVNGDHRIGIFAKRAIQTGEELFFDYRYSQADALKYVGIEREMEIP

Target: histone methyltransferase enhancer of zeste homolog 2 (EZH2), endogenous (human (endogenous in SW480)) (UniProt Q15910)
Assay: co-IP; total lysates of SW480 cells expressing OGT-FLAG, IP with FLAG Ab or EZH2 Ab, western blotting

binding: binds
B1: O-GlcNAcylation transferase (OGT), FLAG-tagged, overexpressed in SW480 cells (enzyme, UniProt O15294-1 1-1046)
chain: MASSVGNVADSTEPTKRMLSFQGLAELAHREYQAGDFEAAERHCMQLWRQEPDNTGVLLLLSSIHFQCRRLDRSAHFSTLAIKQNPLLAEAYSNLGNVYKERGQLQEAIEHYRHALRLKPDFIDGYINLAAALVAAGDMEGAVQAYVSALQYNPDLYCVRSDLGNLLKALGRLEEAKACYLKAIETQPNFAVAWSNLGCVFNAQGEIWLAIHHFEKAVTLDPNFLDAYINLGNVLKEARIFDRAVAAYLRALSLSPNHAVVHGNLACVYYEQGLIDLAIDTYRRAIELQPHFPDAYCNLANALKEKGSVAEAEDCYNTALRLCPTHADSLNNLANIKREQGNIEEAVRLYRKALEVFPEFAAAHSNLASVLQQQGKLQEALMHYKEAIRISPTFADAYSNMGNTLKEMQDVQGALQCYTRAIQINPAFADAHSNLASIHKDSGNIPEAIASYRTALKLKPDFPDAYCNLAHCLQIVCDWTDYDERMKKLVSIVADQLEKNRLPSVHPHHSMLYPLSHGFRKAIAERHGNLCLDKINVLHKPPYEHPKDLKLSDGRLRVGYVSSDFGNHPTSHLMQSIPGMHNPDKFEVFCYALSPDDGTNFRVKVMAEANHFIDLSQIPCNGKAADRIHQDGIHILVNMNGYTKGARNELFALRPAPIQAMWLGYPGTSGALFMDYIITDQETSPAEVAEQYSEKLAYMPHTFFIGDHANMFPHLKKKAVIDFKSNGHIYDNRIVLNGIDLKAFLDSLPDVKIVKMKCPDGGDNADSSNTALNMPVIPMNTIAEAVIEMINRGQIQITINGFSISNGLATTQINNKAATGEEVPRTIIVTTRSQYGLPEDAIVYCNFNQLYKIDPSTLQMWANILKRVPNSVLWLLRFPAVGEPNIQQYAQNMGLPQNRIIFSPVAPKEEHVRRGQLADVCLDTPLCNGHTTGMDVLWAGTPMVTMPGETLASRVAASQLTCLGCLELIAKNRQEYEDIAVKLGTDLEYLKKVRGKVWKQRISSPLFNTKQYTMELERLYLQMWEHYAAGNKPDHMIKPVEVTESA
